Paper PMC11784136
For at least one entry, the source does not settle the construct or the ends of the probe. For some of these results: A negative result means that nothing was seen under these conditions. For some of these results: The comparison behind a weaker result is the experiment's own reference, which may not be listed here.

Legend:
[1] = target: RpoS (sigma factor) (Pseudomonas putida) (UniProt Q88ME8); experiment: EMSA; settings: 10 mM Mg2+, EMSA: 10 mM Tris pH 7.8, 50 mM KCl, 10 mM MgCl2, 5% glycerol, 25 C, 30 min, 5% acrylamide gel on ice, 0.5x TBE, recombinant protein, protein details: His (pET28a), probe letters rebuilt from the primers and the genome
[2] = target: RpoS (sigma factor) (Pseudomonas putida) (UniProt Q88ME8); experiment: competition with a labelled probe; settings: 10-fold cold DNA abolished shift of labeled PwspA; EMSA: 10 mM Tris pH 7.8, 50 mM KCl, 10 mM MgCl2, 5% glycerol, 25 C, 30 min; 5% acrylamide gel on ice, 0.5x TBE; recombinant protein; protein details: His (pET28a); probe letters rebuilt from the primers and the genome

Q: Does “ATGGGCATATCGACGAGCGCGAGCGGGCGCTGATCGAGGGTGAATTCACGCGCCTGGACAGCGACCGCGAATTGCAGCACTGGCTGCATGCCGAGCTGAACAAGCCGCTGGACCCGGCCGAAGTGGCCCGCGCTGCGCAAACGCCGGAGATGGCTGCCGAGATGTACCTGGCCAGCGTGATGATGGTCGATCAGGAAAACTTCATGGAGCGTGCCTACCTGGACGAGCTGGCCCGCCAGCTGCGGCTGGACCCGGGCTTGCGCCAGGAACTGGAAAGCCAGGTGCGGTTGGCTGCAGCGTAGTGGCGGTGCTTGCCACGGCCTATTGAGCGCCTGTGAGATCGAGCGCCGCCCGTGCGGCGCTCCGTCTCACAGGCGCAAAATTCCTGACGACAATCACATCAATACCGTAAGACCTCTGGGCTATACTTCGGCGATTTTTCCCGCTCGTTGTGAATTCCTGAGGGCTGAATGTGAAGAACTGGACCTTGCGCTCAGCAGGTAGCTTGACA (double strand) [PwspA]” bind ([1]; shift at 100 nM RpoS or larger, label: FAM 5' (via tail primer))?
A: Result: binds

Q: Does “ATGGGCATATCGACGAGCGCGAGCGGGCGCTGATCGAGGGTGAATTCACGCGCCTGGACAGCGACCGCGAATTGCAGCACTGGCTGCATGCCGAGCTGAACAAGCCGCTGGACCCGGCCGAAGTGGCCCGCGCTGCGCAAACGCCGGAGATGGCTGCCGAGATGTACCTGGCCAGCGTGATGATGGTCGATCAGGAAAACTTCATGGAGCGTGCCTACCTGGACGAGCTGGCCCGCCAGCTGCGGCTGGACCCGGGCTTGCGCCAGGAACTGGAAAGCCAGGTGCGGTTGGCTGCAGCGTAGTGGCGGTGCTTGCCACGGCCTATTGAGCGCCTGTGAGATCGAGCGCCGCCCGTGCGGCGCTCCGTCTCACAGGCGCAAAATTCCTGACGACAATCACATCAATACCGTAAGACCTCTGGGCTATACTTCGGCGATTTTTCCCGCTCGTTGTGAATTCCTGAGGGCTGAATGTGAAGAACTGGACCTTGCGCTCAGCAGGTAGCTTGACA (double strand) [cold PwspA (unlabeled specific competitor)]” bind [2]?
A: Result: binds

Q: Does “ATGGGCATATCGACGAGCGCGAGCGGGCGCTGATCGAGGGTGAATTCACGCGCCTGGACAGCGACCGCGAATTGCAGCACTGGCTGCATGCCGAGCTGAACAAGCCGCTGGACCCGGCCGAAGTGGCCCGCGCTGCGCAAACGCCGGAGATGGCTGCCGAGATGTACCTGGCCAGCGTGATGATGGTCGATCAGGAAAACTTCATGGAGCGTGCCTACCTGGACGAGCTGGCCCGCCAGCTGCGGCTGGACCCGGGCTTGCGCCAGGAACTGGAAAGCCAGGTGCGGTTGGCTGCAGCGTAGTGGCGGTGCTTGCCACGGCCTATTGAGCGCCTGTGAGATCGAGCGCCGCCCGTGCGGCGCTCCGTCTCACAGGCGCAAAATTCCTGACGACAATCACATCAATACCGTAAGACCTCTGGGTCGGCACTCGGCGATTTTTCCCGCTCGTTGTGAATTCCTGAGGGCTGAATGTGAAGAACTGGACCTTGCGCTCAGCAGGTAGCTTGACA (double strand) [PwspA(-10M)]” bind [1]?
A: Result: no binding

Q: Does “GGGCATGTCATTGACGATGGCGATCTTCATCCCTGAGCAACTCCGATCAGTTCCACAACAGCATCCAGCAACGCATCGTCGTGGAAACTGGCCTTTGCCAAATAGTAGTCGGCGCCGGCGTCCAGGCCACGCCGTCGGTCTTCCTCACGGTCTTTATAGGACACCACCATCACCGGCAATGACTGCAGGCGCTGGTCGCGACGCACCAGGGTAACCAGCTCGATACCGTCCATGCGCGGCATGTCGATGTCGGTGATCAACAGGTCGAAGTCCTCACTGCGCAGGGCGTTCCAGCCGTCCATGCCATCCACCGCCACCGCCACGTCGTAGCCACGGTTGCCCAGCAGCTTGCGCTGCAGTTCGCGTACGGTCAGCGAGTCGTCGACCACCAGGATGCGTTTGCGGACTACGCCACGGGCTCCGCTGCTGCCGCGCTCGATGCGCTCCAGGCTGCCCGTGCTGAGCAGTTTTTCCAGCGAGCGTAGCAAGTCTTCGACATCGACGATCAGGACCACCGAGCCATCATTCAGCAGGTAGCTTGACA (double strand) [PwspF]” bind ([1]; weak and unspecific binding, label: FAM 5' (via tail primer))?
A: Result: binds more weakly
